Consider one molecule from US7947666B2, “2-methylene-(20S,25S)-19,26-dinor-vitamin D analogs” (Wisconsin Alumni Research Foundation, priority 2007, dated 2011).

The subject of this assay is 24-hydroxylase (24Ohase) gene promoter. Nature of the assay: In vitro transcription assay, luciferase reporter in ROS 17/2.8 (bone) cells. It counts as cell-based. The note with it: ROS 17/2.8 cells, 24-hydroxylase promoter luciferase, 16 h; FIG. 3; read-out: EC50, transcriptional activity in bone cells. The procedure: Transcription activity was measured in ROS 17/2.8 (bone) cells that were stably transfected with a 24-hydroxylase (24Ohase) gene promoter upstream of a luciferase reporter gene (Arbour et al., 1998). Cells were given a range of doses. Sixteen hours after dosing the cells were harvested and luciferase activities were measured using a luminometer.
RLU=relative luciferase units.

Turning to `C=C1/C(=C\C=C2/CCC[C@]3(C)[C@@H]([C@H](C)CCCC(C)(C)O)CC[C@@H]23)C[C@@H](O)C[C@@H]1O` [1,25(OH)2D3, 1α,25-dihydroxyvitamin D3, reference compound], the EC50 was 0.2 nM.

For orientation: EC50 means the concentration at which the effect is half-maximal.
